PubChem BioAssay AID504786 – Drosophila RNAi Screening Center, 2011
Aim: 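Positive regulators of HIF-driven reporter output in Drosophila cells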 (primary screen). Cell system: Drosophila S2 cells with a stable HIF luciferase reporter. Reagent: long dsRNA against Drosophila genes, about 0.2 µg dsRNA per well of a 384-well plate. Timing: three days of knock-down, then 20 h of DFO before reading. Conditions: desferrioxamine (DFO) at 100 µM, an iron chelator that mimics hypoxia, for 20 h. Detection: 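Firefly luciferase driven by the mouse ldh-a hypoxia-response element, measured after 20 h of 100 µM DFO; z-scores per plate, higher means more signal lost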. Scale: z-score: higher = stronger loss of HIF reporter signal.
The deposit covers about 21,000 reagents; this is a random part of those that have a named target and a result. 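Primary screen; positive scores mean lost reporter signal, so the sign may be inverted from the usual convention.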 Reagents against one gene are numbered here. A plus sign joins genes that one reagent is predicted to hit.

Target gene | dsRNA no. | z-score, replicate 1 | z-score, replicate 2 | z-score, replicate 3 | z-score, replicate 4
CG15136 | 1 | -0.3 | -0.7 | – | –
CG43316 | 1 | 0 | -0.2 | – | –
CG43316 | 2 | -0.2 | -0.3 | – | –
Snx16 (Sorting nexin 16) | 1 | -0.4 | -0.7 | – | –
asRNA:CR42547 + CG15674 | 1 | -0.2 | -0.7 | – | –
Trpgamma (Transient receptor potential cation channel gamma) | 1 | -0.2 | -0.3 | – | –
Cnx14D (Calnexin 14D) | 1 | -0.1 | -0.3 | – | –
CG11790 | 1 | -0.2 | 0.1 | – | –
msl-2 (male-specific lethal 2) | 1 | -0.1 | 1 | – | –
oc (ocelliless) | 1 | -0.3 | -0.4 | – | –
MED28 (Mediator complex subunit 28) | 1 | 1.1 | 2.8 | – | –
CG13562 | 1 | -0.5 | -0.5 | – | –
CG7685 | 1 | 0.1 | -0.3 | – | –
CG31050 | 1 | 0 | 0 | – | –
Cyp4e1 (Cytochrome P450 4e1) | 1 | -0.3 | -0.3 | – | –
Incenp (Inner centromere protein) | 1 | -0.3 | -0.4 | – | –
Nedd4 | 1 | -0.2 | -0.5 | – | –
CG13989 | 1 | -0.3 | -0.1 | – | –
CG4115 | 1 | -0.5 | -0.5 | – | –
CG31787 | 1 | 0.1 | 0.1 | – | –
mRpS11 (mitochondrial ribosomal protein S11) | 1 | 0.2 | 0 | – | –
CG15208 | 1 | 0 | -0.1 | – | –
CG5731 | 1 | 0.1 | 0.8 | – | –
verm (vermiform) | 1 | -0.3 | -0.4 | – | –
CG7298 | 1 | -0.3 | -0.5 | – | –
CG14439 | 1 | -0.3 | -0.2 | – | –
CG13023 | 1 | -0.4 | -0.3 | – | –
CG13023 | 2 | -0.3 | -0.5 | – | –
Vha55 (Vacuolar H[+]-ATPase 55kD subunit) | 1 | -0.2 | -0.1 | – | –
CG11044 | 1 | -0.4 | -0.4 | – | –
Tep5Psi (Thioester-containing protein 5 pseudogene) | 1 | -0.3 | -0.3 | – | –
Tep5Psi (Thioester-containing protein 5 pseudogene) | 2 | -0.2 | -0.3 | – | –
RpL34a (Ribosomal protein L34a) | 1 | -0.5 | 0.3 | – | –
srp (serpent) | 1 | -0.2 | -0.1 | – | –
srp (serpent) | 2 | 2.1 | 2.7 | – | –
Fer2 (48 related 2) | 1 | 0.2 | -0.2 | – | –
Rif1 (Rap1 interacting factor 1) | 1 | 0 | -0.1 | – | –
Recs1 | 1 | -0.3 | 0.1 | – | –
Gnptab | 1 | -0.3 | -0.4 | – | –
CG13321 | 1 | -0.2 | -0.2 | – | –
CG6424 | 1 | -0.3 | -0.5 | – | –
CG18132 | 1 | 0.1 | 0.6 | – | –
BomBc2 (Bomanin Bicipital 2) | 1 | -0.3 | -0.4 | – | –
mbl (muscleblind) | 1 | -1.5 | -0.6 | -0.4 | -0.4
mbl (muscleblind) | 2 | -0.1 | 0.6 | – | –
mbl (muscleblind) | 3 | 2.9 | 1.4 | – | –
CG30109 | 1 | -0.3 | -0.3 | – | –
CG5921 | 1 | -0.3 | -0.1 | – | –
CG5921 | 2 | -0.3 | -0.6 | – | –
Nagk (N-acetylglucosamine kinase) | 1 | -0.4 | -0.1 | – | –
CG18636 | 1 | -0.2 | 0 | – | –
Inx3 (Innexin 3) | 1 | -0.3 | -0.3 | – | –
Syt1 (Synaptotagmin 1) | 1 | -0.5 | -0.3 | – | –
Syt1 (Synaptotagmin 1) | 2 | -0.7 | -0.4 | – | –
Syt1 (Synaptotagmin 1) | 3 | -0.7 | 0 | – | –
Syt1 (Synaptotagmin 1) | 4 | -0.2 | -0.3 | – | –

A stretch taken from the entries so far:
Target gene | dsRNA no. | z-score, replicate 1 | z-score, replicate 2 | z-score, replicate 3 | z-score, replicate 4
Rif1 (Rap1 interacting factor 1) | 1 | 0 | -0.1 | – | –
Recs1 | 1 | -0.3 | 0.1 | – | –
Gnptab | 1 | -0.3 | -0.4 | – | –
CG13321 | 1 | -0.2 | -0.2 | – | –
CG6424 | 1 | -0.3 | -0.5 | – | –
